Measurements as given in patent publication US20220057415A1, “METHOD FOR DETECTING ALLERGIC DISEASES” (The University of Tokyo, priority 2018, published 2022).

The compounds below were run on allergic rhinitis model mice (assay: Lipid mediators in urine by LC-MS/MS). Details: 24 hours, 5-time and 10-time OVA-administered groups vs solvent-administered groups.
Assay type: in vivo, BALB/C mice

| Compound | amount of lipid mediator (peak area relative to internal standard) |
| --- | --- |
| 12-hydroxy eicosapentaenoic acid [12-HEPE] | tend to be larger |
| CCCCC/C=C\C[C@@H](O)/C=C/C=C\C/C=C\CCCC(=O)O [12-HETE, 12-hydroxyeicosatetraenoic acid] | tend to be larger |
| CCCCC[C@H](O)/C=C/[C@H]1C(=O)C[C@H](O)[C@@H]1C/C=C\CCCC(=O)O [PGD2, prostaglandin D2] | tend to be larger |
